# Test results taken from PubChem BioAssay AID485314 (National Center for Advancing Translational Sciences (NCATS), 2010).
# Hit rate of the full screen: of about 340,000 compounds, about 4,500 (1.3%) were called active. This list was built around the results that the source calls inconclusive (neither active nor inactive); the mix of calls is not that of the screen. Calls follow the shape of the dose curve; as a rule, active = well fitted inhibition curve with a large enough effect; inconclusive = small, poorly fitted or top-dose-only effect, or another doubt; inactive = no such curve, though single readings can be large or run the other way. Where the call is inconclusive, the potency comes from a doubtful curve fit.
# Biological target: DNA polymerase beta (Homo sapiens) (UniProt P06746)
# Test: qHTS Assay for Inhibitors of DNA Polymerase Beta
# Conditions: Pol beta primer extension/strand displacement, fluorescence kinetic; activity change, negative = inhibition: at 114 µM (top of the series)
# Method in brief: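 Curves were derived by four-parameter Hill fits of normalized qHTS data. The kinetic fluorescent primer-extension read was taken at 0 and 10 min after 50 nM substrate, following a 15 min room-temperature preincubation of 10 nM enzyme with compounds.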
# % is scaled to controls: 0 for no effect and ±100 for the full control effect; potency is read from the fitted curve at half-maximal effect.
SMILES,Potency,"activity change, negative = inhibition"
Cc1ccccc1NC(=O)CN1C(=O)N/C(=C\c2ccc(N3CCOCC3)c(F)c2)C1=O,"inconclusive: 6.31 µM [inhibitor, full curve]",
CCOC(=O)c1c(-c2ccc(-c3ccccc3)cc2)csc1NC(=O)C1C2CCC(O2)C1C(=O)O (stereo unspecified),"inconclusive: 79.4 µM [inhibitor, partial curve]",
COc1ccc(OC)c2c(C)c(C)[nH]c12,active: 28.2 µM,
COc1ccccc1C(CC(=O)c1ccccc1)CC(=O)c1ccccc1,"inconclusive: 89.1 µM [inhibitor, single point]",
O=C(O)/C(=C/c1ccco1)NC(=O)c1ccccc1,active: 39.8 µM,
COc1ccc(S(=O)(=O)N2CCCC(N(C)CCc3ccccc3)C2)cc1OC (stereo unspecified),"inconclusive: 89.1 µM [inhibitor, single point]",
O=[N+]([O-])c1ccc2nc(SCc3cn4cc(Cl)ccc4n3)[nH]c2c1,active: 5.62 µM,
Cc1ccc(S(=O)(=O)NNC(=O)C(=O)NNS(=O)(=O)c2ccc(C)cc2)cc1,"inconclusive: 56.2 µM [inhibitor, partial curve]",
Cc1[nH]c2ccccc2c1/C=C/c1nc2ccccc2c(=O)n1CCO,"inconclusive: 2.51 µM [inhibitor, full curve, poor fit]",
COc1ccc(NC(=O)CC2C(=O)N(c3ccc(Cl)cc3)C(=S)N2CCc2ccncc2)cc1 (stereo unspecified),"inconclusive: 79.4 µM [inhibitor, partial curve]",
CN(C)c1ccc(CNC(=O)C2CCN(S(=O)(=O)c3cn(C)cn3)CC2)cc1,"inconclusive: 89.1 µM [inhibitor, single point]",
COc1ccccc1CNC(=O)c1oc2c(c1C)-c1nn(Cc3ccc(Cl)cc3)cc1CC2,inactive,
CC(NC(=O)Cn1nc(C(=O)O)c2ccccc2c1=O)C12CC3CC(CC(C3)C1)C2 (stereo unspecified),"inconclusive: 100 µM [inhibitor, single point]",
O=C(O)c1ccccc1NC(=O)c1ccccc1Nc1ccccc1,"inconclusive: 70.8 µM [inhibitor, single point]",
Cc1ccc(OCCCC(=O)Nc2ccc(S(=O)(=O)Nc3cc(C)nc(C)n3)cc2)cc1,inactive,
O=C(Nc1ccccc1)/C(=C\c1ccco1)NC(=O)c1ccco1,inactive,
O=C(CN1C(=O)C2CC=CCC2C1=O)N1CCN(c2ccc([N+](=O)[O-])cc2)CC1 (stereo unspecified),"inconclusive: 50.1 µM [inhibitor, partial curve]",
CCN1CCN(CCNC(=O)c2ccc(/C=C3/Sc4ccccc4N(Cc4cccc(Cl)c4)C3=O)cc2)CC1,"inconclusive: 89.1 µM [inhibitor, single point]",
COc1ccc(N2CCN(C(=O)CCS(=O)(=O)c3cc(Br)cc4c3N(C(=O)C3CC3)CC4)CC2)cc1,"inconclusive: 63.1 µM [inhibitor, single point]",
CCOC(=O)N1CCC(=NNc2nc3ccccc3s2)CC1,"inconclusive: 89.1 µM [inhibitor, single point]",
CCN1C(=O)S/C(=C/c2c(OCc3ccc(C(=O)O)cc3)ccc3ccccc23)C1=O,active: 50.1 µM,
CCCCNc1nc2c(c(=O)n(Cc3ccccc3)c(=O)n2C)n1C,"inconclusive: 7.94 µM [inhibitor, partial curve]",

SMILES,Potency,"activity change, negative = inhibition"
CCc1ccc(CNC(=O)c2ccc(CS(=O)(=O)Cc3cccc(C)c3)o2)cc1,"inconclusive: 100 µM [inhibitor, single point]",
C=CCOc1ccc(/C(O)=C2/C(=O)C(=O)N(CCCn3ccnc3)C2c2ccco2)cc1 (stereo unspecified),"inconclusive: 39.8 µM [inhibitor, full curve]",
CSc1ccc(CN2CCCC(CO)(Cc3ccccc3)C2)cc1 (stereo unspecified),"inconclusive: 70.8 µM [inhibitor, single point]",
O=C(CN1C(=O)CC(c2ccco2)Sc2ccccc21)NCc1ccc2c(c1)OCO2 (stereo unspecified),"inconclusive: 12.6 µM [inhibitor, partial curve, poor fit]",
CC(CCc1ccccc1)NC(=O)c1ccc(NC(=O)c2ccc(Cl)cc2Cl)cc1 (stereo unspecified),"inconclusive: 3.98 µM [inhibitor, partial curve, poor fit]",
COc1cc(NC(=S)NCCC(c2ccccc2)c2ccccc2)cc(OC)c1,inactive,
COc1ccc(C(=O)N2CCN(c3nc4c(C)c(Cl)ccc4s3)CC2)c(OC)c1,inactive,
CC(C)(C)n1nc2c(c1NC(=O)Cc1ccc(F)cc1)CS(=O)(=O)C2,inactive,
CC12CN3CC(C)(CN(C1)C3c1ccc([N+](=O)[O-])o1)C2=O (stereo unspecified),inactive,
O=Nc1[nH]c(=O)c(/C=C(\O)c2ccccc2)nc1NO,"inconclusive: 50.1 µM [inhibitor, single point]",
Cc1sc2nc(-c3cccs3)nc(N3CCCN(C)CC3)c2c1C,"inconclusive: 31.6 µM [inhibitor, single point]",
Nc1ccc2oc(Cc3ccc(Cl)cc3)nc2c1,"inconclusive: 35.5 µM [inhibitor, single point]",
Cc1nc(=O)cc(-c2ccccc2)n1-c1ccccc1,inactive,
CCCc1nc(SCC(=O)Nc2cc(C)on2)c2c(=O)n(C)c(=O)n(C)c2n1,"inconclusive: 100 µM [inhibitor, single point]",
CCOc1ccccc1-c1nc(C(N)=O)c2c(n1)n(-c1ccc3c(c1)OCO3)c(=O)n2C,inactive,
CCN(CC(=O)NC(C)(C)C)Cc1cc(=O)n2c(-c3ccccc3)csc2n1,,inconclusive: -111% [inhibitor]
C=Cc1ccc(Cn2c(=O)n(CC3CCC(C(=O)NC(C)C)CC3)c(=O)c3sccc32)cc1 (stereo unspecified),"inconclusive: 70.8 µM [inhibitor, single point]",
Cc1ccccc1OCC(=O)N/N=C/c1ccc2c(c1)OCCO2,"inconclusive: 0.631 µM [inhibitor, partial curve, poor fit]",
C/C(=N/OC(=O)CC(C)C)c1cc(-c2ccc(Cl)cc2)no1,"inconclusive: 8.91 µM [inhibitor, full curve, poor fit]",
Cc1ccc(-c2cc3nc(C)cc(NCc4ccco4)n3n2)cc1,"inconclusive: 89.1 µM [inhibitor, single point]",
COc1ccc(C(=O)C2CCCN(C(=O)CCc3scnc3C)C2)c(C)c1 (stereo unspecified),"inconclusive: 10 µM [inhibitor, full curve]",
CC(=O)O/N=C1\C(=O)N(Cc2ccc(C)cc2)c2ccccc21,"inconclusive: 89.1 µM [inhibitor, single point]",

SMILES,Potency,"activity change, negative = inhibition"
O=C(COC(=O)c1ccc([N+](=O)[O-])s1)Nc1ccccc1,active: 6.31 µM,
CCN(CC)c1ccc2nc3c4ccccc4c(=O)cc-3oc2c1,"inconclusive: 10 µM [inhibitor, full curve, poor fit]",
O=C(Cn1c(=O)oc2ccccc21)Nc1ccc(S(=O)(=O)N2CCCCC2)cc1,"inconclusive: 100 µM [inhibitor, partial curve, poor fit]",
Cc1nccn1CC(=O)N/N=C/c1ccc(O)c(O)c1,"inconclusive: 15.8 µM [inhibitor, partial curve]",
COc1ccc2c(CC(=O)Nc3ccc(OC)c(NS(=O)(=O)c4ccc(F)cc4)c3)coc2c1,"inconclusive: 89.1 µM [inhibitor, single point]",
O=C(CCCCO)CCCCCCCC[C@H]1N[C@H](CO)[C@H](O)[C@@H]1O[C@@H]1O[C@H](CO)[C@@H](O)[C@H](O)[C@H]1O,"inconclusive: 17.8 µM [inhibitor, full curve, poor fit]",
Nc1c(C(=O)Nc2ccccc2)sc2nc(-c3ccco3)ccc12,"inconclusive: 3.55 µM [inhibitor, full curve]",
COc1ccc(CNC(=O)c2cc(-c3ccncc3)nc3c(C)cc(C)cc23)cc1OC,"inconclusive: 44.7 µM [inhibitor, partial curve, poor fit]",
COc1ccccc1CNC(=O)c1cc2ccc3ccc(C)[nH]c3c2n1,inactive,
CCc1nc2sc3c(Cl)ncnc3c2c2c1CCCC2,"inconclusive: 22.4 µM [inhibitor, single point]",
CCn1nnc2cc(C(=O)Nc3cccc(C)c3C)ccc21,inactive,
CC1CCCN(Cc2c(O)ccc3c4c(c(=O)oc23)CCCC4)C1 (stereo unspecified),"inconclusive: 63.1 µM [inhibitor, single point]",
CCOc1cc(C(c2c(C)[nH][nH]c2=O)c2c(C)[nH][nH]c2=O)cc([N+](=O)[O-])c1O,inactive,
CC(=O)c1c(C)n(-c2ccc(C)cc2)c2ccc(O)cc12,"inconclusive: 100 µM [inhibitor, single point]",
O=C(Nc1ccc2c(c1)OCCO2)c1ccc(Cl)c(Cl)c1,"inconclusive: 15.8 µM [inhibitor, single point]",
Cc1cc(OCc2cc(C(=O)N3CCCCCC3)no2)cc(C)c1Cl,inactive,
CCn1c(SCC(=O)NC(=O)c2ccccc2OC)nc2ccccc21,,inconclusive: -32.8% [inhibitor]
COc1ccccc1C(=O)N1CCN(CCc2ccccc2)CC1,"inconclusive: 0.224 µM [inhibitor, full curve]",
CC(=O)C1=C(C)OC2(O)c3ccccc3C(=O)C12O (stereo unspecified),inactive,
CCSc1ccc(/C(N)=N/OC(=O)c2cccs2)cn1,"inconclusive: 0.282 µM [inhibitor, full curve, poor fit]",
O=C(NCC(=O)N(c1cccnc1)C(C(=O)NC1CCCC1)c1ccccc1F)c1ccco1 (stereo unspecified),"inconclusive: 4.47 µM [inhibitor, full curve, poor fit]",
Cc1cc(Cl)ccc1Oc1ccc(C(N)=O)cc1[N+](=O)[O-],"inconclusive: 89.1 µM [inhibitor, single point]",

# Individual results from the list:
# Potency, Cc1cc(Cl)ccc1Oc1ccc(C(N)=O)cc1[N+](=O)[O-] is entered as inconclusive: 89.1 µM [inhibitor, single point]
# Potency, CCSc1ccc(/C(N)=N/OC(=O)c2cccs2)cn1 is entered as inconclusive: 0.282 µM [inhibitor, full curve, poor fit]
# Potency, CCOc1cc(C(c2c(C)[nH][nH]c2=O)c2c(C)[nH][nH]c2=O)cc([N+](=O)[O-])c1O is entered as inactive
# Potency, O=C(COC(=O)c1ccc([N+](=O)[O-])s1)Nc1ccccc1 is entered as active: 6.31 µM
